Results on twelve molecules are retold here after the supplement of paper PMC11237882.

B1: unnamed (peptide)
chain: AVSASMPQVSYLKAVGVYLWVSSLFVFLSVIEYAAV
B2: unnamed (peptide)
chain: DPQRLGVLITPVPDAQAATRRQAVGLLAFLGLLFCL
B3: unnamed (peptide)
chain: VASKASIPTLPISIYLLLSYFAFISVLFAKIVYTKY
B4: unnamed (peptide)
chain: SQFGTIVLHVSEILYEDLHFVAVILAFLAAVAAVLI
B5: unnamed (peptide)
chain: SSGQLWSWMVCLAGLCAVCLLILSPFWGLIFFSVSR
B6: unnamed (peptide)
chain: QFGVLFCTILLLLWVSVFLYGSFYYSYMPTVSHLSP
B7: unnamed (peptide)
chain: PPAFYRPNSDNRRQGGRERLASTNDKGSMAMESAKD
B8: unnamed (peptide)
chain: MTKLRASTTSETIQYRKAVKATLVLLPLLGITYMLF
B9: unnamed (peptide)
chain: IPFGTLVAILALWFCISVPLTFIGAYFGFKKNAIEH
B10: unnamed (peptide)
chain: FFTVIFATFSAIIFLSFEAVSSLSKLGEVEDARGFT
B11: unnamed (peptide)
chain: MEPQNTSTVTNFQLLGFQNLLEWQALLFVIFLLIYC
B12: unnamed (peptide)
chain: QRGLRERHRLQATSHRKTSLPCPLPVLPRIPSSNCR

Some of the results follow. Values are worked out from sequencing counts and are noisy.

The target of this assay is T1, Homer1 EVH1 domain.
T1 chain: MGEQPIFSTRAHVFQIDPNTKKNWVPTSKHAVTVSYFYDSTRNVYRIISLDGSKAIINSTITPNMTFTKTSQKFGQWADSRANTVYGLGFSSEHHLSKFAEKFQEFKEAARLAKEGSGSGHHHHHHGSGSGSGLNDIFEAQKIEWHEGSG
In words: enrichment score (AUC of log2 frequency ratio across FACS sorting rounds) (log2 AUC); higher = stronger enrichment for Homer1 EVH1 binding.
Regarding B1, the enrichment score was found to be 3.41.
Under B2 stands 3.8.
Under B3 stands 4.2; under B4, 2.47.
Consider B5, for which the enrichment score came to 0.749.
Take B6: the enrichment score amounted to 3.27.
The result for B7 reads 0.929; that for B8, 0.31.
Consider B9, for which the enrichment score worked out at 1.57.
The result for B10 reads 0.171; that for B11, 0.758; that for B12, 2.32.
